Values of other authors as cited in patent publication US20250295562A1, “Formulation for treatment of melasma, hyperpigmentation, and dark spots” (priority 2024, published 2025).
For at least one compound, name, drawing or mass did not settle the structure.

Test system: melanogenesis pathway
Details: clinical

For `CCCCCCc1ccc(O)cc1O` [hexylresorcinol], the “effectiveness as skin lightener relative to Hydroquinone” value is given as “four-times more effective than Hydroquinone”.
